Laboratory results: the supplement of paper PMC12823440, “Inhibitors supercharge kinase turnover through native proteolytic circuits” (Nature, 2025)
The list shows a part of the results. Hit calls seldom repeat between salt and free forms of one compound.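 Kinases were expressed as nanoluciferase fusions in K562 cells and luminescence was read every 4 h between 2 and 18 h as percent of control, DMSO set to 100% and a positive control to 0%. A time point counts as decreased when the signal drops significantly (2 sigma). The hit call is the authors' own, does not follow from the count of time points alone, and its rule is not shown.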

By UniProt entry, the sequences of proteins in these tests, tags left out. Where a name states a change or a piece, a line headed by the entry shows the natural chain unless it says otherwise.
UniProt P00519, whole entry: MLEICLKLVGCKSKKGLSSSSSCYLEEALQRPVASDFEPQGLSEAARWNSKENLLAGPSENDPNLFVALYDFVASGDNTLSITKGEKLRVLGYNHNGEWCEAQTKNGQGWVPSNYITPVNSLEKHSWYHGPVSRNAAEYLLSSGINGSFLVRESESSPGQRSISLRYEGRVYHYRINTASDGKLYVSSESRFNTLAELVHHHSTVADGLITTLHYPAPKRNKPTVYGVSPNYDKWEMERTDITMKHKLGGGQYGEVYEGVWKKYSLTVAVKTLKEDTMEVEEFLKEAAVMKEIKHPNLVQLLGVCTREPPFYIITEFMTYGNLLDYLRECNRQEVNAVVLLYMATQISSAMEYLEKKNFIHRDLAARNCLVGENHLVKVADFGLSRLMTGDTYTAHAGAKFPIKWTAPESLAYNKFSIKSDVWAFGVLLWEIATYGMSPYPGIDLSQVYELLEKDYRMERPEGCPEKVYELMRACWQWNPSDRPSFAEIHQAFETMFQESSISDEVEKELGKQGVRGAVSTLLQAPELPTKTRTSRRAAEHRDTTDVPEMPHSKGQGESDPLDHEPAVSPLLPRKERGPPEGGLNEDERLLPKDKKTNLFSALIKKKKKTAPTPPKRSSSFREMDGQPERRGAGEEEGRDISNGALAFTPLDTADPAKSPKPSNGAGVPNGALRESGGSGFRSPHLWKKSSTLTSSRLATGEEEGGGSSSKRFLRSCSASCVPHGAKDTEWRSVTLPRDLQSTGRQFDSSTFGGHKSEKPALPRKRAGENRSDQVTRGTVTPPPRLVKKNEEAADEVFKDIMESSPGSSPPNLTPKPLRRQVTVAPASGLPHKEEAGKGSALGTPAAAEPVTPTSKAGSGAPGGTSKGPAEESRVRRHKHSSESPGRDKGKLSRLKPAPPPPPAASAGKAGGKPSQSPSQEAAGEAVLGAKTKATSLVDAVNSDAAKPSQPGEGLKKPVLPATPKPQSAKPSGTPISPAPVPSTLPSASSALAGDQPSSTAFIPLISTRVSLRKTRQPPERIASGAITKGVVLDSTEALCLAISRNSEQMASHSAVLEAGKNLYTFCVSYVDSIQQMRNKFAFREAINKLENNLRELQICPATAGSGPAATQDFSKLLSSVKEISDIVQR
UniProt Q9UM73: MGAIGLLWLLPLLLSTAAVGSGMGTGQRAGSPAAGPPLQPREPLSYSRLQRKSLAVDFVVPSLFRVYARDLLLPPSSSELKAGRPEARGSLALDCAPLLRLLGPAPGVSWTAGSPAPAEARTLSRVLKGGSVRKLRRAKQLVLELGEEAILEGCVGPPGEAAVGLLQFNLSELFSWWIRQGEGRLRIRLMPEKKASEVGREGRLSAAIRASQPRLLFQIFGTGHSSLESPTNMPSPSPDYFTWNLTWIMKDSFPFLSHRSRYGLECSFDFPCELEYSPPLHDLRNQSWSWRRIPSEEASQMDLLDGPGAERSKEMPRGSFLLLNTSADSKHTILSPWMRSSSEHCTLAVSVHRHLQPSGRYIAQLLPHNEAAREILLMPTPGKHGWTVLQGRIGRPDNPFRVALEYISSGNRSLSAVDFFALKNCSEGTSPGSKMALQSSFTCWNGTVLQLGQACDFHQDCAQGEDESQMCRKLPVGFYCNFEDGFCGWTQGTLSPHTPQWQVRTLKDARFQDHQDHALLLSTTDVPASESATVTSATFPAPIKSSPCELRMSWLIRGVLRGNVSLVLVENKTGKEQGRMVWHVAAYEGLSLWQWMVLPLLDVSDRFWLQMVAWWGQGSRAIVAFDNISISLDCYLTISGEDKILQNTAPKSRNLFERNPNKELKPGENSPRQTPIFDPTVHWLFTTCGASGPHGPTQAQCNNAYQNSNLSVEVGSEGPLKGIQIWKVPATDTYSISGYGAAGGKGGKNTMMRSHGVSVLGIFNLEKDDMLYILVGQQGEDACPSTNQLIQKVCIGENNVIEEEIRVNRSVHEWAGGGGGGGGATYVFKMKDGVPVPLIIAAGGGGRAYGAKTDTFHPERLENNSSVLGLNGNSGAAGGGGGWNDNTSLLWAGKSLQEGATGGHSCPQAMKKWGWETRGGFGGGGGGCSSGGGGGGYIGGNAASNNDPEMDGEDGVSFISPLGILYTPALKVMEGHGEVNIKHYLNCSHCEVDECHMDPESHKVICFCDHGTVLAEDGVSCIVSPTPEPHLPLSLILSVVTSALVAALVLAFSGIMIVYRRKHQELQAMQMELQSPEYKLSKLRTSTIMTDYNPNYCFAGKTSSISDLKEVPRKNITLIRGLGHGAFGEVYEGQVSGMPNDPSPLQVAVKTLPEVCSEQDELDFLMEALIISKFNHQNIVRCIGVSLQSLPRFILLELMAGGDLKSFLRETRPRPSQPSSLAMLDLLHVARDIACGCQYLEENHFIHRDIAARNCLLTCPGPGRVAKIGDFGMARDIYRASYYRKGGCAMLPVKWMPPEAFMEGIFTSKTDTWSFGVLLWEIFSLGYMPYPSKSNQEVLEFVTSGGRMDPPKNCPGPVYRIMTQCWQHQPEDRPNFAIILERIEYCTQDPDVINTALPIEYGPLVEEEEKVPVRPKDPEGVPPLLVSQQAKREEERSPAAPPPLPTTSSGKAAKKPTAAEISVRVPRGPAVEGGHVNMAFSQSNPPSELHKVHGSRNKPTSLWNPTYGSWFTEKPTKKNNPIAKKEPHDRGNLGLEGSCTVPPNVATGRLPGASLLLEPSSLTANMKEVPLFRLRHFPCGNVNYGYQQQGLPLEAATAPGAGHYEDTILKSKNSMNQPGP
UniProt O14965: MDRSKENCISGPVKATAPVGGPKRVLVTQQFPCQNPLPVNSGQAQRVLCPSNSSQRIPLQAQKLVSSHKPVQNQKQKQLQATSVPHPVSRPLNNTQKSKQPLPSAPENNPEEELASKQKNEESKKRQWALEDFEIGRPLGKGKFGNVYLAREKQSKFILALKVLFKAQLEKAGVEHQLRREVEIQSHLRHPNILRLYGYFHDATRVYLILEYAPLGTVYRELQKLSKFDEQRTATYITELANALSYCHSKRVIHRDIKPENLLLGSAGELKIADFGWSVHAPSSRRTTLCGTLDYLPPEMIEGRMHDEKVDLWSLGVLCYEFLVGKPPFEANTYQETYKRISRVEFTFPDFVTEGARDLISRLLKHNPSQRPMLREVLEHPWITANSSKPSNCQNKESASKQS
UniProt Q96GD4, whole entry: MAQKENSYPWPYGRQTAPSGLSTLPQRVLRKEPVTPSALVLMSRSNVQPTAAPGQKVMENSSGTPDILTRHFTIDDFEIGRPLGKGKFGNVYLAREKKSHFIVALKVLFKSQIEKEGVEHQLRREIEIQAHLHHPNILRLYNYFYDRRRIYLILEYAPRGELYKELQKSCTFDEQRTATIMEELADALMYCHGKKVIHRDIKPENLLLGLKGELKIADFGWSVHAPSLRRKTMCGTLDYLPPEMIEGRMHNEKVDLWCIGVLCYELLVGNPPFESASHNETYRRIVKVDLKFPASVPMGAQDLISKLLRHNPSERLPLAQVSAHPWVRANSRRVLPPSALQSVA
UniProt Q9UQB9: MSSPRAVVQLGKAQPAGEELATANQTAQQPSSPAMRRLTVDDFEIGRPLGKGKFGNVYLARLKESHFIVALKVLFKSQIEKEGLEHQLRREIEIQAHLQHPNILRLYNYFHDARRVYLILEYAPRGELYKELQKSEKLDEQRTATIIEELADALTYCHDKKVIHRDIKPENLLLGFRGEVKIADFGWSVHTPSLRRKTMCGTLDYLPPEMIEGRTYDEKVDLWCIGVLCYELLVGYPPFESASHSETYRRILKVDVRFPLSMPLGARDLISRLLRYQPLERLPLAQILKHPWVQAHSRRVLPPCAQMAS
UniProt P15056, whole entry, looked up: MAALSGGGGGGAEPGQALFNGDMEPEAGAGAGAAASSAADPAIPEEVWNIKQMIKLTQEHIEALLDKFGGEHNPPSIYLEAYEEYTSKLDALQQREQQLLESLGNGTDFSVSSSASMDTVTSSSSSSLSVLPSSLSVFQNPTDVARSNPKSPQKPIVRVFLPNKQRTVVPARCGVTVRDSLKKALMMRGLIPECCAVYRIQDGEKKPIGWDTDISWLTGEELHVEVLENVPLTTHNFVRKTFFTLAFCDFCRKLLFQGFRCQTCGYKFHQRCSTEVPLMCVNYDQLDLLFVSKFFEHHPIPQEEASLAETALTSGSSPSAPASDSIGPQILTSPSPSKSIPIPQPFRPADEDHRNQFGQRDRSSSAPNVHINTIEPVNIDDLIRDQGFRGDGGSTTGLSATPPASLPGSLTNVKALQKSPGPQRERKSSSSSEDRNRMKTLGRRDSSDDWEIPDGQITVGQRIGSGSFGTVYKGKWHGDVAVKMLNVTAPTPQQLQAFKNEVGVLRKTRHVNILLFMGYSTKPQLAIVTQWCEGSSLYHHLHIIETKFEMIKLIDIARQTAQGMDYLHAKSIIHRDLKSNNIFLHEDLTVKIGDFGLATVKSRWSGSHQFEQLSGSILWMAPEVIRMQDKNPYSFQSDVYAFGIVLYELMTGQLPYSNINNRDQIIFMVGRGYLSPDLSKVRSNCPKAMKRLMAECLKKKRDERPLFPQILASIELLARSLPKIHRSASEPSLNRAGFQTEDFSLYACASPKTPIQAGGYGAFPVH
UniProt Q06187: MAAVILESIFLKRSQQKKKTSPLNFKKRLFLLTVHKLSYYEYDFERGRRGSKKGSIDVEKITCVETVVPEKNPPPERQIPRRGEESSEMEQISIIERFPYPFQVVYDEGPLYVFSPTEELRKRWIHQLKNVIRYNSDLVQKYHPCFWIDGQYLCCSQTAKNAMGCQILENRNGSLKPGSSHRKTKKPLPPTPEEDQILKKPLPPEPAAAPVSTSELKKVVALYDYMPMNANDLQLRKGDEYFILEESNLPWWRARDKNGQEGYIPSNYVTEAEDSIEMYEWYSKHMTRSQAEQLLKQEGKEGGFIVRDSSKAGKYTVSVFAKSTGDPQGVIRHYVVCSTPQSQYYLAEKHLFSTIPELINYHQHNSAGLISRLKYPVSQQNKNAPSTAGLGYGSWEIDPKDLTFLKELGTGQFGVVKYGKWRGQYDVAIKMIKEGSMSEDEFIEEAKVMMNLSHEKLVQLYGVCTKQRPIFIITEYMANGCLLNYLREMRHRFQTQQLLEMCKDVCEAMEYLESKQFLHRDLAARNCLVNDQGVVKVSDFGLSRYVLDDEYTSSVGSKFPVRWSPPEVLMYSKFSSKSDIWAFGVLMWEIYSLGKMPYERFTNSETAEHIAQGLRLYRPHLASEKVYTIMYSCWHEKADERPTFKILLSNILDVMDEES
UniProt Q15131: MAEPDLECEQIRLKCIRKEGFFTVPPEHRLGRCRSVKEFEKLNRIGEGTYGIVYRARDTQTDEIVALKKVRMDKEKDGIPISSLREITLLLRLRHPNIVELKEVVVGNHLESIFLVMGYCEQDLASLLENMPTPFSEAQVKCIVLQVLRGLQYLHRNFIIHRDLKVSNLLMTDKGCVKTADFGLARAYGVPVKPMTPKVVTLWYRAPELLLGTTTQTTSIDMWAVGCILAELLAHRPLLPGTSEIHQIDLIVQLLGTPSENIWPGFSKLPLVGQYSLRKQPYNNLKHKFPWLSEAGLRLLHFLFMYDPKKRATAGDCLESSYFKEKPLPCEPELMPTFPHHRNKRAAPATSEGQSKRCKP
UniProt P11802: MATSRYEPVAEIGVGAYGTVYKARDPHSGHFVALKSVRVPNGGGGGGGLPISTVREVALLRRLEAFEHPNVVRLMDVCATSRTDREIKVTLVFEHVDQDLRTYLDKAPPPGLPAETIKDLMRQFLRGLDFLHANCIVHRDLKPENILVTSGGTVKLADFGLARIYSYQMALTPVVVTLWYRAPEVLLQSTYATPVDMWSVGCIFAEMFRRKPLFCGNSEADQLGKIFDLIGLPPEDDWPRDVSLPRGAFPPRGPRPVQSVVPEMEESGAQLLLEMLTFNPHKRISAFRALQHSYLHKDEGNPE
UniProt Q00535, whole entry, looked up: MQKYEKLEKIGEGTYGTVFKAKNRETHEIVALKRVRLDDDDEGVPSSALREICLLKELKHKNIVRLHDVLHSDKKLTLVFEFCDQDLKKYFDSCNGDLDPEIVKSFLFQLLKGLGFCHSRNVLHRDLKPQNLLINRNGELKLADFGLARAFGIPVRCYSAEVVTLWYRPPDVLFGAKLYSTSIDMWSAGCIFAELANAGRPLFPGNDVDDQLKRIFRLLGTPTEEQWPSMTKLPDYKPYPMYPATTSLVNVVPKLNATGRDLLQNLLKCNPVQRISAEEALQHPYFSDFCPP
UniProt Q00534, whole entry: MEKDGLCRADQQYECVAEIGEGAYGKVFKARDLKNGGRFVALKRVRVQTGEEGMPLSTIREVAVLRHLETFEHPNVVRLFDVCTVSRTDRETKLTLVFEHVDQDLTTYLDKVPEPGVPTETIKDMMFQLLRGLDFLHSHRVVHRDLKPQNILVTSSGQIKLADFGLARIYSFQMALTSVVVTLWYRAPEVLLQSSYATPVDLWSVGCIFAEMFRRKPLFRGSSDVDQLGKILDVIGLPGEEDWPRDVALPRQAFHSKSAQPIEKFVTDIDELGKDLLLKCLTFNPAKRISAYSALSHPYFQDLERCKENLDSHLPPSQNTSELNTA

Tests used:
Assay in all cases: kinase-Nluc reporter destabilization hit call (1 = scored as downregulated) (binary); higher = compound decreases kinase abundance
Settings in all cases: K562; 2-18 h
[1] = biological target: ABL1 (UniProt P00519)
[2] = biological target: AKT1 (UniProt P31749)
[3] = biological target: ALK (UniProt Q9UM73)
[4] = biological target: ARAF (UniProt P10398)
[5] = biological target: AURKA (UniProt O14965)
[6] = biological target: AURKB (UniProt Q96GD4)
[7] = biological target: AURKC (UniProt Q9UQB9)
[8] = biological target: BLK (UniProt P51451)
[9] = biological target: BMX (UniProt P51813)
[10] = biological target: BRAF (UniProt P15056)
[11] = test system: BRAF_V600E
[12] = biological target: BTK (UniProt Q06187)
[13] = biological target: CAMK2A (UniProt Q9UQM7)
[14] = biological target: CAMK2G (UniProt Q13555)
[15] = biological target: CDK10 (UniProt Q15131)
[16] = biological target: CDK2 (UniProt P24941)
[17] = biological target: CDK3 (UniProt Q00526)
[18] = biological target: CDK4 (UniProt P11802)
[19] = biological target: CDK5 (UniProt Q00535)
[20] = biological target: CDK6 (UniProt Q00534)

Measured: kinase-Nluc reporter destabilization hit call

Nc1ccc(-c2cccc(C(=O)Nc3cnc4nc(N5CCOCC5)oc4c3)n2)cn1 (10 µM)
inactive: [1] 0 | [2] 0 | [3] 0 | [4] 0 | [5] 0 | [6] 0 | [7] 0 | [8] 0 | [9] 0 | [10] 0 | [11] 0 | [12] 0 | [13] 0 | [14] 0 | [15] 0 | [16] 0 | [17] 0 | [18] 0 | [19] 0 | [20] 0

O=C(Nc1ccccc1C(=O)NC1CCCCNC1=O)c1cc2ccccc2s1 (centres undefined) (10 µM)
inactive: [1] 0 | [2] 0 | [3] 0 | [4] 0 | [5] 0 | [6] 0 | [7] 0 | [8] 0 | [9] 0 | [10] 0 | [11] 0 | [12] 0 | [13] 0 | [14] 0 | [15] 0 | [16] 0 | [17] 0 | [18] 0 | [19] 0 | [20] 0

Cc1nc2c(NCc3cccc(S(C)(=O)=O)c3)nccn2c1-c1ccc(O)c(F)c1 (10 µM)
inactive: [1] 0 | [2] 0 | [3] 0 | [4] 0 | [5] 0 | [6] 0 | [7] 0 | [8] 0 | [9] 0 | [10] 0 | [11] 0 | [12] 0 | [13] 0 | [14] 0 | [15] 0 | [16] 0 | [17] 0 | [18] 0 | [19] 0 | [20] 0

O=C1C=CC2=C3c4cc(O)c(O)cc4CC3(O)COC2=C1O (centres undefined) [Hematein] (10 µM)
inactive: [1] 0 | [2] 0 | [3] 0 | [4] 0 | [5] 0 | [6] 0 | [7] 0 | [8] 0 | [9] 0 | [10] 0 | [11] 0 | [12] 0 | [13] 0 | [14] 0 | [15] 0 | [16] 0 | [17] 0 | [18] 0 | [19] 0 | [20] 0

CC(C)(C)S(=O)(=O)c1cc2c(Nc3ccc4scnc4c3)ncnc2cc1OCCOP(=O)(O)O (2 µM)
inactive: [1] 0 | [2] 0 | [3] 0 | [4] 0 | [5] 0 | [6] 0 | [7] 0 | [8] 0 | [9] 0 | [10] 0 | [11] 0 | [12] 0 | [13] 0 | [14] 0 | [15] 0 | [16] 0 | [17] 0 | [18] 0 | [19] 0 | [20] 0

CCOC(=O)c1c(N2CCc3ccc(OC)cc3C2)oc(C=C2C=Nc3ncccc32)c1O (10 µM)
active: [1] 1
inactive: [2] 0 | [3] 0 | [4] 0 | [5] 0 | [6] 0 | [7] 0 | [8] 0 | [9] 0 | [10] 0 | [11] 0 | [12] 0 | [13] 0 | [14] 0 | [15] 0 | [16] 0 | [17] 0 | [18] 0 | [19] 0 | [20] 0

CCC[C@H](C)Oc1nc(N)c2[nH]c(=O)n(CCCCCN3CCCCC3)c2n1 (10 µM)
inactive: [1] 0 | [2] 0 | [3] 0 | [4] 0 | [5] 0 | [6] 0 | [7] 0 | [8] 0 | [9] 0 | [10] 0 | [11] 0 | [12] 0 | [13] 0 | [14] 0 | [15] 0 | [16] 0 | [17] 0 | [18] 0 | [19] 0 | [20] 0

Cn1cnc2c(F)c(Nc3ccc(Br)cc3F)c(C(=O)NOCCO)cc21 [Binimetinib] (10 µM)
inactive: [1] 0 | [2] 0 | [3] 0 | [4] 0 | [5] 0 | [6] 0 | [7] 0 | [8] 0 | [9] 0 | [10] 0 | [11] 0 | [12] 0 | [13] 0 | [14] 0 | [15] 0 | [16] 0 | [17] 0 | [18] 0 | [19] 0 | [20] 0

Cc1cnc(Cl)nc1-c1ccc(N(Cc2ccc(CNC(=O)C(F)F)cc2)C(=O)c2ccc(O)cc2O)cc1 (10 µM)
inactive: [1] 0 | [2] 0 | [3] 0 | [4] 0 | [5] 0 | [6] 0 | [7] 0 | [8] 0 | [9] 0 | [10] 0 | [11] 0 | [12] 0 | [13] 0 | [14] 0 | [15] 0 | [16] 0 | [17] 0 | [18] 0 | [19] 0 | [20] 0

N#CC(=C(/N)Sc1ccccc1N)/C(C#N)=C(\N)Sc1ccccc1N (10 µM)
inactive: [1] 0 | [2] 0 | [3] 0 | [4] 0 | [5] 0 | [6] 0 | [7] 0 | [8] 0 | [9] 0 | [10] 0 | [11] 0 | [12] 0 | [13] 0 | [14] 0 | [15] 0 | [16] 0 | [17] 0 | [18] 0 | [19] 0 | [20] 0

Nc1ccc(C(=O)Nc2cccc(-c3nc(N4CCOCC4)c4oc5ncccc5c4n3)c2)cn1 (10 µM)
inactive: [1] 0 | [2] 0 | [3] 0 | [4] 0 | [5] 0 | [6] 0 | [7] 0 | [8] 0 | [9] 0 | [10] 0 | [11] 0 | [12] 0 | [13] 0 | [14] 0 | [15] 0 | [16] 0 | [17] 0 | [18] 0 | [19] 0 | [20] 0

COc1ccc(CN2CCC(c3ccc4nc(C(=O)N5CCN(Cc6ccc(C(F)(F)F)cc6)CC5)[nH]c4c3)CC2)cn1 (2.5 µM)
inactive: [1] 0 | [2] 0 | [3] 0 | [4] 0 | [5] 0 | [6] 0 | [7] 0 | [8] 0 | [9] 0 | [10] 0 | [11] 0 | [12] 0 | [13] 0 | [14] 0 | [15] 0 | [16] 0 | [17] 0 | [18] 0 | [19] 0 | [20] 0

O=C(Nc1ccc(Cl)cc1)C1CN(C(=O)c2cccc(-c3ccco3)c2)CC(F)(F)C1 (centres undefined) (2.5 µM)
inactive: [1] 0 | [2] 0 | [3] 0 | [4] 0 | [5] 0 | [6] 0 | [7] 0 | [8] 0 | [9] 0 | [10] 0 | [11] 0 | [12] 0 | [13] 0 | [14] 0 | [15] 0 | [16] 0 | [17] 0 | [18] 0 | [19] 0 | [20] 0

CCc1c(C(=O)NNC(=O)[C@H](O)c2cc(F)cc(F)c2)ccc(O)c1C (10 µM)
inactive: [1] 0 | [2] 0 | [3] 0 | [4] 0 | [5] 0 | [6] 0 | [7] 0 | [8] 0 | [9] 0 | [10] 0 | [11] 0 | [12] 0 | [13] 0 | [14] 0 | [15] 0 | [16] 0 | [17] 0 | [19] 0 | [20] 0

N#Cc1cc(-c2ccnc(Nc3ccc(N4CCOCC4)cc3)n2)ccc1OC1CCOCC1 (10 µM)
inactive: [1] 0 | [2] 0 | [3] 0 | [4] 0 | [5] 0 | [6] 0 | [7] 0 | [8] 0 | [9] 0 | [10] 0 | [11] 0 | [12] 0 | [13] 0 | [14] 0 | [15] 0 | [16] 0 | [17] 0 | [18] 0 | [19] 0 | [20] 0

Cc1nc(Nc2cnn(C3CCNCC3)c2)nc2c1N(C)C(=O)c1cc3ccccc3cc1N2C (2.5 µM)
inactive: [1] 0 | [2] 0 | [3] 0 | [4] 0 | [5] 0 | [6] 0 | [7] 0 | [8] 0 | [9] 0 | [10] 0 | [11] 0 | [12] 0 | [13] 0 | [14] 0 | [15] 0 | [16] 0 | [17] 0 | [18] 0 | [19] 0 | [20] 0

COc1ccc(-c2cc(=O)c3c(O)cc(O)cc3o2)cc1-c1c(O)cc(O)c2c(=O)cc(-c3ccc(O)cc3)oc12 [Bilobetin] (2.5 µM)
inactive: [1] 0 | [2] 0 | [3] 0 | [4] 0 | [5] 0 | [6] 0 | [7] 0 | [8] 0 | [9] 0 | [10] 0 | [11] 0 | [12] 0 | [13] 0 | [14] 0 | [15] 0 | [16] 0 | [17] 0 | [18] 0 | [19] 0 | [20] 0

Nothing new here: two of the compounds above.
O=C(Nc1ccc(Cl)cc1)C1CN(C(=O)c2cccc(-c3ccco3)c2)CC(F)(F)C1 (centres undefined) (2.5 µM)
inactive: [1] 0 | [2] 0 | [3] 0 | [4] 0 | [5] 0 | [6] 0 | [7] 0 | [8] 0 | [9] 0 | [10] 0 | [11] 0 | [12] 0 | [13] 0 | [14] 0 | [15] 0 | [16] 0 | [17] 0 | [18] 0 | [19] 0 | [20] 0

CCc1c(C(=O)NNC(=O)[C@H](O)c2cc(F)cc(F)c2)ccc(O)c1C (10 µM)
inactive: [1] 0 | [2] 0 | [3] 0 | [4] 0 | [5] 0 | [6] 0 | [7] 0 | [8] 0 | [9] 0 | [10] 0 | [11] 0 | [12] 0 | [13] 0 | [14] 0 | [15] 0 | [16] 0 | [17] 0 | [19] 0 | [20] 0
